The text below walks through data of PMC7409263.

Amino acid sequences for entries named in this document (tags omitted). A change or cut given only in a name is not applied to a line headed by its entry.
UniProt Q6GQA4: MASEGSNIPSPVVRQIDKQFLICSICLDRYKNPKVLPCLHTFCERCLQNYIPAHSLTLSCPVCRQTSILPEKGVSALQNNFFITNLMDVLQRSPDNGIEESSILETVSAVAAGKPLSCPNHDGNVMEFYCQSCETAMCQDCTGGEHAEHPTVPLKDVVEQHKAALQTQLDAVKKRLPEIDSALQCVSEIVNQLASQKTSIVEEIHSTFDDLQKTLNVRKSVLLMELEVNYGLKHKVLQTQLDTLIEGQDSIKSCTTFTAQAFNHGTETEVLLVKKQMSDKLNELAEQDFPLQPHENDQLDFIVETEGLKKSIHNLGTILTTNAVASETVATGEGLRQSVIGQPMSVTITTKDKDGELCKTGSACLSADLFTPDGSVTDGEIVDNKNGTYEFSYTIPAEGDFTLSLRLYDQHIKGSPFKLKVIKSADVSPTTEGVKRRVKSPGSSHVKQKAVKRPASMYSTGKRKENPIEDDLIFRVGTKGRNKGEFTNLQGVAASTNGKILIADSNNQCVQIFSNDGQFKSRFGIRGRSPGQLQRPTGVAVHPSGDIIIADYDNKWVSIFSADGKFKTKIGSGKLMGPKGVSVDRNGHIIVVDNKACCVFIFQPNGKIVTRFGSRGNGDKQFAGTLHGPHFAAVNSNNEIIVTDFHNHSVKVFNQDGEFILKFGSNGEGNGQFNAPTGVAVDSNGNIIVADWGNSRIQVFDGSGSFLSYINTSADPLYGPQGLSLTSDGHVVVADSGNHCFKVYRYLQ
UniProt Q6DJK5: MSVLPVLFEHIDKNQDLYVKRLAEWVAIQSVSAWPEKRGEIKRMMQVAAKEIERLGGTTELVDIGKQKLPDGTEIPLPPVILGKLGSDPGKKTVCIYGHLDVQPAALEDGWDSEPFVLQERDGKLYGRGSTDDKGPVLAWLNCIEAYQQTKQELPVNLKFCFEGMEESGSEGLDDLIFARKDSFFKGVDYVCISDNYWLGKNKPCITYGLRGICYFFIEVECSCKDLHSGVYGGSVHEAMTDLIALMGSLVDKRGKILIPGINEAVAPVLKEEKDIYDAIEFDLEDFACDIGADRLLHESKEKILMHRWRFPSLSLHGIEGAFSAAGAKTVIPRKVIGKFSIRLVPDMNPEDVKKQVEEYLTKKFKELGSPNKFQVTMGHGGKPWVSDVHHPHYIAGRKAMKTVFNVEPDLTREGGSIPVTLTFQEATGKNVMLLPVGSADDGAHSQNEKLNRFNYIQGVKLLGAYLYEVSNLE
UniProt Q7ZTL1: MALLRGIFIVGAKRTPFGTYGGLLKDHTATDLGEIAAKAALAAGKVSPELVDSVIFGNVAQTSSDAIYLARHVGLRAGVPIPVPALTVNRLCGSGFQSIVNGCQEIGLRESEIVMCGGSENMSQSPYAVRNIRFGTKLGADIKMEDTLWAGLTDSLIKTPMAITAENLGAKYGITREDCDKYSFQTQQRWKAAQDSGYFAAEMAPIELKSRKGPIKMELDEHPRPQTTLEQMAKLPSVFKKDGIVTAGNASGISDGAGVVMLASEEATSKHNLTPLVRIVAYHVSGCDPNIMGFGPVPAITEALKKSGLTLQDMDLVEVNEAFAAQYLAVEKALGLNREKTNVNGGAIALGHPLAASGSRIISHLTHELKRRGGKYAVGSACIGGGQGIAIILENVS
UniProt Q7ZY16: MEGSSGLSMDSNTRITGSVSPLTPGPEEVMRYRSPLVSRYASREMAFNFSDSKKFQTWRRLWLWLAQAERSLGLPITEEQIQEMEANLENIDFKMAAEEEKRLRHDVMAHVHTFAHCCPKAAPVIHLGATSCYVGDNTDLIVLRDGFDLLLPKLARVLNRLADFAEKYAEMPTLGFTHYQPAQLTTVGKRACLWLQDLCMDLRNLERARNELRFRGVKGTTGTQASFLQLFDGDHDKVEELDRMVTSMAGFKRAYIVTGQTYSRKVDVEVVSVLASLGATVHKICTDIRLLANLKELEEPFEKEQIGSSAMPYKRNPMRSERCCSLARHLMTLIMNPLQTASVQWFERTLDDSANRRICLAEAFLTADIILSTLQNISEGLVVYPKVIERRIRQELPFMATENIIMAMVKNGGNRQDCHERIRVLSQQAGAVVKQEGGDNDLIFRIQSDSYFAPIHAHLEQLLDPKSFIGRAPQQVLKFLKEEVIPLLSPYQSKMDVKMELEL
UniProt A0A8J0U0U7: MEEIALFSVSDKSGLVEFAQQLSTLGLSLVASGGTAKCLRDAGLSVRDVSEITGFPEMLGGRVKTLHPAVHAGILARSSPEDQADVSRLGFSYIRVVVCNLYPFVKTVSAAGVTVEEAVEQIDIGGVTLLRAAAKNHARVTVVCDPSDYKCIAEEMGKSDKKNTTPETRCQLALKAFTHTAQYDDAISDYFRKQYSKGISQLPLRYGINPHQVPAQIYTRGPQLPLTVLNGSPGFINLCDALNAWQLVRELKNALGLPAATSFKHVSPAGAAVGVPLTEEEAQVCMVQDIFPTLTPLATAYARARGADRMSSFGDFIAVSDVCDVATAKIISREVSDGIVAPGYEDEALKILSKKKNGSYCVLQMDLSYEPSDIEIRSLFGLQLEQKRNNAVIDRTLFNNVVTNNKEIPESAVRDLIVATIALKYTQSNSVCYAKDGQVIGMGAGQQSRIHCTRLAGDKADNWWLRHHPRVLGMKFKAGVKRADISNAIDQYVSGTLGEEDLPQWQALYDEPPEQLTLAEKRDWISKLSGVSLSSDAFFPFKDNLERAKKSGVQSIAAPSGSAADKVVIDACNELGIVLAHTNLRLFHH
UniProt B1WBE0: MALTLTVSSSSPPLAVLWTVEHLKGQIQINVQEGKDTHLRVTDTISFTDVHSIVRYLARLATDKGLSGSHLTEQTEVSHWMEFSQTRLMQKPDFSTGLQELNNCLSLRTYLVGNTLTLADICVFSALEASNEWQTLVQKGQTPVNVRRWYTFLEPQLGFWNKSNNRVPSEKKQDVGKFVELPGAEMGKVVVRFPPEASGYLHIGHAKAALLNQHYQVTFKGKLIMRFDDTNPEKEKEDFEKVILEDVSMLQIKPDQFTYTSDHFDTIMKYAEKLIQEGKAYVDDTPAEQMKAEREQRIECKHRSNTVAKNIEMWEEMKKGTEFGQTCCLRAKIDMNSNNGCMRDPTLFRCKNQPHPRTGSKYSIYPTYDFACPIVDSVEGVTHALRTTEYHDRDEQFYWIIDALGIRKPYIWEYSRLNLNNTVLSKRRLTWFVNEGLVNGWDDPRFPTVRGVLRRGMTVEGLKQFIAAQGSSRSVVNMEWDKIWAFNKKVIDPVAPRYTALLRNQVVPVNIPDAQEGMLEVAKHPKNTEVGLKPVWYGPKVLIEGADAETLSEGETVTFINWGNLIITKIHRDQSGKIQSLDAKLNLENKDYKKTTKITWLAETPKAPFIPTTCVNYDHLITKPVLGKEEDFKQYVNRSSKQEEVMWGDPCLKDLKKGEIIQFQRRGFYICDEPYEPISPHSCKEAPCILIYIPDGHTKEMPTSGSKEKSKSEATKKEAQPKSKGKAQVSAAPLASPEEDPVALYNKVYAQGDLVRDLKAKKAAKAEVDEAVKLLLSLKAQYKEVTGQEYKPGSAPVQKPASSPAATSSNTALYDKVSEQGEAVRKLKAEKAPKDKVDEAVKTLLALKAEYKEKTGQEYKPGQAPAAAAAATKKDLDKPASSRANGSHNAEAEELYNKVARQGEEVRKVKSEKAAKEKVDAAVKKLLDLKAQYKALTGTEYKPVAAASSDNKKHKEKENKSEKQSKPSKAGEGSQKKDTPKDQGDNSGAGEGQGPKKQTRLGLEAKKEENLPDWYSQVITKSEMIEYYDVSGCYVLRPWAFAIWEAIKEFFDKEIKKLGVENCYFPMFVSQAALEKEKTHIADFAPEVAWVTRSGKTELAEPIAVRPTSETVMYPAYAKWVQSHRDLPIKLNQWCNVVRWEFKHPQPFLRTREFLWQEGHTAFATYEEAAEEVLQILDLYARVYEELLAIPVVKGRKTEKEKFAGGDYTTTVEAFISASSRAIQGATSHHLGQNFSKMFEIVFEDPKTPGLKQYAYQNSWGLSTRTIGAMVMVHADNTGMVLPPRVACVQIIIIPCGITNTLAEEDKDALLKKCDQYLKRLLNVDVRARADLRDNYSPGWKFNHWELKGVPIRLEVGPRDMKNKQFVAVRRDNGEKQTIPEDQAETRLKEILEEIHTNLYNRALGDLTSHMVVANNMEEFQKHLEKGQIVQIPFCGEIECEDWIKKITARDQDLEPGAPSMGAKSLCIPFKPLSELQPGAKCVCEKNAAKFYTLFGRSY
UniProt Q6INS0: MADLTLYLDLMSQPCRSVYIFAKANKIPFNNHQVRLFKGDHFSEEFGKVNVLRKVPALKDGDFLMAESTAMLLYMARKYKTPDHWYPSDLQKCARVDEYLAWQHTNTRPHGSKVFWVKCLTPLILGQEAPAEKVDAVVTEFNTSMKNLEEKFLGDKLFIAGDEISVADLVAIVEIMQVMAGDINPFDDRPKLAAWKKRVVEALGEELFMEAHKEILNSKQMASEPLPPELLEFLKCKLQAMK
UniProt P51469: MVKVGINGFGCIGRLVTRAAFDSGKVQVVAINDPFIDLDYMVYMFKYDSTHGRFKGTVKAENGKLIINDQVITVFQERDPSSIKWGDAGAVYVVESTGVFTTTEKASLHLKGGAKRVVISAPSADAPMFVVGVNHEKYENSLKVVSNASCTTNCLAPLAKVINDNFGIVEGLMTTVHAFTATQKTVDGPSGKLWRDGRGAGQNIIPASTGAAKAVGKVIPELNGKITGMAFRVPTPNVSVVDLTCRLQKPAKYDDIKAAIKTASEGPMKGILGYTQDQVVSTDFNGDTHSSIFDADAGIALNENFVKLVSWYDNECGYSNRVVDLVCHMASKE
UniProt Q7T0P9: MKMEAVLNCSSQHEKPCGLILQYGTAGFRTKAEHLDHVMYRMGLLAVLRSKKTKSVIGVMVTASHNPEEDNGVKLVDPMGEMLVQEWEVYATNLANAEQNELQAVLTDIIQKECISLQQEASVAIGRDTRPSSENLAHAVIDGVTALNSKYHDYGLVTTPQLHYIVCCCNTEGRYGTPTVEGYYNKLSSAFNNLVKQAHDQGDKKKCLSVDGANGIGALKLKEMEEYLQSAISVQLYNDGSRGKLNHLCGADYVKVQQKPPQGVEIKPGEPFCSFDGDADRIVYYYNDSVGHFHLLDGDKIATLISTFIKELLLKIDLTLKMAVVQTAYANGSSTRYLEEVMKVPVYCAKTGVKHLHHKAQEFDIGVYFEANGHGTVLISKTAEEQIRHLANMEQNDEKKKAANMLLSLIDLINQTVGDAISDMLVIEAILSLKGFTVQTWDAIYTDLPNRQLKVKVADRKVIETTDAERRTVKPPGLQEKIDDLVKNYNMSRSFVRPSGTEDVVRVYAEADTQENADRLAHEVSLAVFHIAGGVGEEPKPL
UniProt A2RV94: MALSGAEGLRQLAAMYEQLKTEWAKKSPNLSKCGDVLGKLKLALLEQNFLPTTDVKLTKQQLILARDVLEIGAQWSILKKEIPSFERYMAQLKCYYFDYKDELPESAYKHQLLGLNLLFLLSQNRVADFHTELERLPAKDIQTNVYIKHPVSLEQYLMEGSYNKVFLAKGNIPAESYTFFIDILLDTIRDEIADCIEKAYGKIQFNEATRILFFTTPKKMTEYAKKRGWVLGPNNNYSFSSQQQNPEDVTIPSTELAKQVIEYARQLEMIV
UniProt Q66IX2: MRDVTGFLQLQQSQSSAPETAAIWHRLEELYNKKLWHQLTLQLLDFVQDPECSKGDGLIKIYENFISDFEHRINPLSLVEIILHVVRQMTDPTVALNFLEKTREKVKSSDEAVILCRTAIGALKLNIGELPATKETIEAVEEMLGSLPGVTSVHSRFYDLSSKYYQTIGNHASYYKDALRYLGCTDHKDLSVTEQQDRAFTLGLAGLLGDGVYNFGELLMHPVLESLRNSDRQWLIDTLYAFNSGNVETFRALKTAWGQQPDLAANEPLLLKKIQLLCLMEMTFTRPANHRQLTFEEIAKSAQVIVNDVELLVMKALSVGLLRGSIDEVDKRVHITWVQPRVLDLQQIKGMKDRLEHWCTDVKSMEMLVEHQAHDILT
UniProt Q52KW8: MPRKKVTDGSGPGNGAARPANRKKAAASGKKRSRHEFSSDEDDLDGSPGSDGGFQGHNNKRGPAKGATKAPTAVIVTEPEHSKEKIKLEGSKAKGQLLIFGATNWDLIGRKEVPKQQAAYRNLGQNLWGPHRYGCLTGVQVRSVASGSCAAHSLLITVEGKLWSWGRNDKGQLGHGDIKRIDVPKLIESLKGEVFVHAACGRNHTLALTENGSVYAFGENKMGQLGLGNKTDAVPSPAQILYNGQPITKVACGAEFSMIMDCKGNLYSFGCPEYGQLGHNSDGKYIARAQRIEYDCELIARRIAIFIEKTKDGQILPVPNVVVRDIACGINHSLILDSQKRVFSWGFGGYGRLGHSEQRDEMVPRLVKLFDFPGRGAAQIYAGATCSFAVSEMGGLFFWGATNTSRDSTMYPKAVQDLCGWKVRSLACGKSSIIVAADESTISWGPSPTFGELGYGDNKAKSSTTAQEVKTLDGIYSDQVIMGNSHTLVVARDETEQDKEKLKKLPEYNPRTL

No constants are given. Whether binding was seen depends on the method and setting. In cells and extracts the contact can be indirect. These calls come from enrichment with a bait or labelling near it, and not all partners need be listed.

The assay has as its target GST-Trim2 (Xenopus tripartite motif containing 2) (Xenopus laevis) (UniProt Q6GQA4). Description: affinity purification with mass spectrometry; GST-Trim2 as bait on Xenopus embryonic lysates (NF stages 30-36), GSH-Sepharose, LC-MS/MS on an LTQ Orbitrap; three independent biological replicates; enrichment relative to GST alone; only the target purified.

Consider “CNDP dipeptidase 2 (from UniProt Q6DJK5)”, for which the binding result was “binds”.
For “acetyl-CoA acyltransferase 2 (from UniProt Q7ZTL1)”, the binding entry is “binds”.
Turning to “adenylosuccinate lyase (from UniProt Q7ZY16)”, the binding entry is listed as “binds”.
On to “aspartyl-tRNA synthetase (from UniProt Q6GQA7)”, for which the binding result was “binds”.
As for “bifunctional purine biosynthesis protein (from UniProt A0A8J0U0U7)”, the entry is “binds”.
On to “glutamyl-prolyl-tRNA synthetase (from UniProt B1WBE0)”, for which the binding result is “binds”.
As for “glutathione S-transferase theta 1 (from UniProt Q6INS0)”, the binding entry is listed as “binds”.
For “glyceraldehyde-3-phosphate dehydrogenase (from UniProt P51469 1-333)” the value was “binds”.
As for “microsomal glutathione S-transferase 3 (from UniProt Q6DJQ1)”, the entry is “binds”; as for “phosphoglucomutase 3 (from UniProt Q7T0P9)”, “binds”; as for “proteasome 26S subunit, non-ATPase 8 (from UniProt A2RV94)”, “binds”.
As to “proteasome 26S subunit, non-ATPase 13 (from UniProt Q66IX2)”, the binding result is given as “binds”.
In the case of “regulator of chromosome condensation 2 (from UniProt Q52KW8 1-513)”, the binding result is reported as “binds”.

B1: serpin family A member 6 (protein, UniProt Q00387 17-436)
chain: SVTEISLDNKHRHRHEQQGHHDSAKHGHQKDKQQQEQIKNDEGKLTKEEKILSEENSDFSVNLFNQLSTESKRSPRKNIFFSPISISAAFYMLALGAKSETHQQILKGLSFNKKKLSESQVHEAFKRLIEDSNNPMKAHQFTIGNALFVEQTVNILKGFEENVKHYYQAGVFPMNFKDPDNAKKQLNNYVKDKTHGVIQEMIRELDSNTEMVLVNYVLYKGEWANNFNPTLTQKSLFSVDKNTNVTVQMMNRLGLYRTYQDDDCKIIELPYKNDTAMLLVVPQLGKIQELVLTSKLINHWYESLATSIVDLYMPTFSISGKVVLKDTLRKMGISDIFTDKADLTGISEQIKLKVSMASHNAVLNVNEFGTEAVGATSAQASPTKLFPPFLIDSPFLVMIYSRTLGSQLFMGKVMDPTNAQ
With B1, the binding entry is “binds”.

B2: endoplasmic reticulum oxidoreductase alpha (protein, UniProt Q6DD71 21-465)
chain: QEAPASAAQRCFCQVTGYLDDCTCDVETIDRFNNHGLFPKLQQLVASDYFRYYKVNLKKSCPFWEDNSHCGVRDCAVNPCSSDEVPGFKPPGFKYTEEANHVHEDVDDCEKEKRLSAVDESLSVETQEAMLKWNRHDDSSDNFCEVDDEESPDAEYVDLLKNPERFTGYKGADTWRIWNSIYEENCFKPKAVQRPLNPLTSSRGENEGNMFYNWLDGLCVEKRAFYRLISGLHASINIHLCATYLLKDTWMDKIWGHNVAEFQKRFDATLTHGEGPKRLRNLYFIYLIELRAISKVLPFFERSNFLLYTGNETKDKETKKILLDVLQDARDFPLHFDENSLFSGDKKEAAKLKEDFRQHFRNISKIMDCVGCFKCRLWGKLQTQGLGTALKILFSEKQIENLSESNQPSAFHLTRQEIVALFNAFGRISTSVQELENFRKLLEKV
As for B2, the binding result is listed as “binds”.

B3: programmed cell death 6-interacting protein (Alix), endogenous in Xenopus embryos (protein, UniProt Q9W6C5-1 1-867)
chain: MATFISVPLKKTSEVDLVKPLSKYIHNTYPSGEDQTEYCRAVDELNKLRKSAVGRPLDKHETSLETVMRYYDQLCSVEPKFPFTESQLCLTFTWKDAFDKGSIFGGSVKLALPSLGYEKTCVLFNIGALASQIASEQNLDNDEALKAASKFYQLASGAFSHIKDTVLSSLNRDPTVDISPDTVGTLSLIMLAQAQEVFFLKATRDKMKDAVIAKLANQAADYYGDAFKQCQYKDTLSKEVFPILAAKHCIMQAHAEYHQSVLAKQQKKFGEEIGRLQHASDLVKTVSSRYDEYVNVKDLADKINRALTAAKKDNDFIYHDRVPDLKDLDPVGKASLVKSTPVNVPLSQKYTDLFEKMVPLAVQQCLSVYNQRKSELINSTIAQMRDATIFANGVLASLNLPAAVEDVSGDSIPQSILNKSKTVIEQGGIQTIGQLIRDLPELLQRNKEILEESLKFLDEEEATDNDLKAKFKDRWQRTPSTELYKPLRSEGSNFRNVLDKAIGADAVVKERYQSHREAIVILCKPEAELNAAIPSANPAKTMQGSEVVTVLKSLLNKLDDMKKEREQLENDIKSVNFDMTTKFLTALAQDGAVNEEAISVTELDQIYGSYTYKVQENLKKQEDLLNNIQSAHQEFSKMKQSNSEANLREEVLKNLAVGHDNYIELVANLKEGTKFYNDLTDILLKFQCKCSDIVFARKTERDELLKDIQQSIAREPSAPSIPQVPSYQSAPSSISTNIATSSIPTPAPRTVFSAKQPPPRPPPPAMPSASPVPASAAQASNPAPTAAADSSQPPSNTIPSQAQGPPYPSYPGYPGYYGMPMPVGYNPYMYGQQTIPPYMYQPPSGQPPYPAQQPSFSYPQQPFFPPQ
Take B3: the binding entry is listed as “binds”.

B4: ribonucleotide reductase M1 (protein, UniProt H1A8Z1 1-797)
chain: MHVIKRDGRQERVMFDKITSRIQKLCYGLNLEFVDPAQITMKVIQGLYSGVTTIELDTLAAETAATLTTKHPDYAILAARVAVSNLHKETKKTFSDVMEDLYNYVNPLNSKHSPMVSKETLDIVLANKDRLNSSIIYDRDFSYNFFGFKTLERSYLLKINGKVAERPQHMLMRVSVGIHKTDIDAAIETYNLLSEKWFTHASPTLFNAGTNRPQLSSCFLLCMKDDSIEGIYDTLKQCALISKSAGGIGVAVSCIRATGSYIAGTNGNSNGLVPMLRVYNNTARYVDQGGNKRPGAFAIYLEPWHYDVFDFLDLKKNTGKEEQRARDLFYAMWIPDLFMKRVENNLDWSLMCPHECPGLEEVWGDKFEELYEKYEREGRTRKVVKAQQVWHAIIESQTETGTPYMLYKDACNRKSNQQNLGTIKCSNQCTEIVEYTSDKEVAVCNLASLALNMYVTPERSFDFKKLADVTKVIVRNLNKIIEINFYPVPEAEYSNKKHRPIGIGVQGLADAFILMRYPFESEKAQMLNKQIFETIYYAALESSCELAKELGPYETYEGCPVSKGILQYDMWNVTPTDLWDWTALKEKIAKYGIRNSLLLAPMPTASTAQILGNNESIEPYTSNIYTRRVLSGEFQIVNPHLMKDLTEQGLWNEEMKNQIIANNGSIQNVPDIPADLKELYKTVWEISQKTVITMAADRGAFIDQSQSLNIHVAEPNYGKLTSMHFYGWKQGLKTGMYYLRTRPAANPIQFTLNKEKLKEKELITMETTEKDKEEKEKNKAAMVCSLENRDECLMCGS
Take B4: the binding result is listed as “binds”.
